The text below walks through data of patent EP0329295A1 (THE UPJOHN COMPANY, priority 1988, dated 1989).

Strings that start with PEPTIDE1 are HELM notation: dots part the residues, brackets hold end groups and non-standard residues. A value given as a limit tells only on which side of the number the result lay.

This data set is described as follows: general procedure: solution-phase peptide synthesis; diethylphosphoryl cyanide / triethylamine.
Where [1] appears, read: late stage modification step, TLC.

Turning to H-Pro-Phe-N(Me)His-LVA-Ile-AMP, the “crude purity (method not given)” value under setting [1] was 95-97% pure by TLC.

In the case of “L-Histidinamide, 1-[[(2-deoxy-L-glucitol-2-yl)amino]carbonyl]-L-prolyl-L-phenylalanyl-N-[2-hydroxy-5-methyl-1-(2-methylpropyl)-4-[[[2-methyl-1-[[(2-pyridinylmethyl)amino]carbonyl]butyl]amino]-carbonyl]hexyl]-N.alpha.-methyl-, N-oxide.”, the difficulty met entry (late stage modification step) is “Attempted chromatographic purification of this material on silica gel was unsuccessful”.

On to “N-[2,3,4,5-Tetrahydroxypentyl]-Pro-Phe-N[CH3]-His-LVA-Ile-AMP”, for which, under “conjugation step, TLC”, the “final HPLC purity” value was 93%.

Consider “N-[Glucaminocarbonyl]-Pro-Phe-N[CH3]-His-LVA-Ile-AMP”, for which the “final HPLC purity” value under setting [1] is “.96%”.

On to “N-[[[2-Hydroxy-1,1-bis(hydroxymethyl)ethyl]-amino]carbonyl]-Pro-Phe-N(Me)His-LVA-Ile-AMP, pyridine N-oxide”, for which, where the note is “late stage modification step, Waters C18 column”, the “final HPLC purity” value is on record as 99.36%.

As to “PEPTIDE1{[DGLU-CO].P.F.[NMHis].[LVA].I.[AMP]}$$$$V2.0”, under setting [1], the “crude purity (method not given)” value is reported as greater than 95% pure by TLC.
